Test results published in paper doi:10.1101/2024.07.22.604556.
These are yes or no findings as the source states them, for the method shown. In cells and extracts the contact can be indirect. Some entries that bind do so weakly or less than the wild type.

Tests used:
[1] = target: CSB-mScarletI (knock-in) (human (endogenous in HCT116)) (UniProt Q03468); assay: co-IP
[2] = target: CSB-mScarletI (knock-in) (human (endogenous in HCT116)), Q03468; assay: co-IP; conditions: remark: other sources report otherwise

binding [1]	binding [2]	Molecule
binds	–	CUL4A (from UniProt Q13619 1-759)
–	binds	XPD subunit of the TFIIH complex, P18074 1-760 (protein) MKLNVDGLLVYFPYDYIYPEQFSYMRELKRTLDAKGHGVLEMPSGTGKTVSLLALIMAYQRAYPLEVTKLIYCSRTVPEIEKVIEELRKLLNFYEKQEGEKLPFLGLALSSRKNLCIHPEVTPLRFGKDVDGKCHSLTASYVRAQYQHDTSLPHCRFYEEFDAHGREVPLPAGIYNLDDLKALGRRQGWCPYFLARYSILHANVVVYSYHYLLDPKIADLVSKELARKAVVVFDEAHNIDNVCIDSMSVNLTRRTLDRCQGNLETLQKTVLRIKETDEQRLRDEYRRLVEGLREASAARETDAHLANPVLPDEVLQEAVPGSIRTAEHFLGFLRRLLEYVKWRLRVQHVVQESPPAFLSGLAQRVCIQRKPLRFCAERLRSLLHTLEITDLADFSPLTLLANFATLVSTYAKGFTIIIEPFDDRTPTIANPILHFSCMDASLAIKPVFERFQSVIITSGTLSPLDIYPKILDFHPVTMATFTMTLARVCLCPMIIGRGNDQVAISSKFETREDIAVIRNYGNLLLEMSAVVPDGIVAFFTSYQYMESTVASWYEQGILENIQRNKLLFIETQDGAETSVALEKYQEACENGRGAILLSVARGKVSEGIDFVHHYGRAVIMFGVPYVYTQSRILKARLEYLRDQFQIRENDFLTFDAMRHAAQCVGRAIRGKTDYGLMVFADKRFARGDKRGKLPRWIQEHLTDANLNLTVDEGVQVAKYFLRQMAQPFHREDQLGLSLLSLEQLESEETLKRIEQIAQQL
